Measured values as given in the supplement of paper PMC10849652.
The list shows a part of the results.

Amino acid sequences for entries named in this document (tags omitted). A change or cut given only in a name is not applied to a line headed by its entry.
UniProt Q14839: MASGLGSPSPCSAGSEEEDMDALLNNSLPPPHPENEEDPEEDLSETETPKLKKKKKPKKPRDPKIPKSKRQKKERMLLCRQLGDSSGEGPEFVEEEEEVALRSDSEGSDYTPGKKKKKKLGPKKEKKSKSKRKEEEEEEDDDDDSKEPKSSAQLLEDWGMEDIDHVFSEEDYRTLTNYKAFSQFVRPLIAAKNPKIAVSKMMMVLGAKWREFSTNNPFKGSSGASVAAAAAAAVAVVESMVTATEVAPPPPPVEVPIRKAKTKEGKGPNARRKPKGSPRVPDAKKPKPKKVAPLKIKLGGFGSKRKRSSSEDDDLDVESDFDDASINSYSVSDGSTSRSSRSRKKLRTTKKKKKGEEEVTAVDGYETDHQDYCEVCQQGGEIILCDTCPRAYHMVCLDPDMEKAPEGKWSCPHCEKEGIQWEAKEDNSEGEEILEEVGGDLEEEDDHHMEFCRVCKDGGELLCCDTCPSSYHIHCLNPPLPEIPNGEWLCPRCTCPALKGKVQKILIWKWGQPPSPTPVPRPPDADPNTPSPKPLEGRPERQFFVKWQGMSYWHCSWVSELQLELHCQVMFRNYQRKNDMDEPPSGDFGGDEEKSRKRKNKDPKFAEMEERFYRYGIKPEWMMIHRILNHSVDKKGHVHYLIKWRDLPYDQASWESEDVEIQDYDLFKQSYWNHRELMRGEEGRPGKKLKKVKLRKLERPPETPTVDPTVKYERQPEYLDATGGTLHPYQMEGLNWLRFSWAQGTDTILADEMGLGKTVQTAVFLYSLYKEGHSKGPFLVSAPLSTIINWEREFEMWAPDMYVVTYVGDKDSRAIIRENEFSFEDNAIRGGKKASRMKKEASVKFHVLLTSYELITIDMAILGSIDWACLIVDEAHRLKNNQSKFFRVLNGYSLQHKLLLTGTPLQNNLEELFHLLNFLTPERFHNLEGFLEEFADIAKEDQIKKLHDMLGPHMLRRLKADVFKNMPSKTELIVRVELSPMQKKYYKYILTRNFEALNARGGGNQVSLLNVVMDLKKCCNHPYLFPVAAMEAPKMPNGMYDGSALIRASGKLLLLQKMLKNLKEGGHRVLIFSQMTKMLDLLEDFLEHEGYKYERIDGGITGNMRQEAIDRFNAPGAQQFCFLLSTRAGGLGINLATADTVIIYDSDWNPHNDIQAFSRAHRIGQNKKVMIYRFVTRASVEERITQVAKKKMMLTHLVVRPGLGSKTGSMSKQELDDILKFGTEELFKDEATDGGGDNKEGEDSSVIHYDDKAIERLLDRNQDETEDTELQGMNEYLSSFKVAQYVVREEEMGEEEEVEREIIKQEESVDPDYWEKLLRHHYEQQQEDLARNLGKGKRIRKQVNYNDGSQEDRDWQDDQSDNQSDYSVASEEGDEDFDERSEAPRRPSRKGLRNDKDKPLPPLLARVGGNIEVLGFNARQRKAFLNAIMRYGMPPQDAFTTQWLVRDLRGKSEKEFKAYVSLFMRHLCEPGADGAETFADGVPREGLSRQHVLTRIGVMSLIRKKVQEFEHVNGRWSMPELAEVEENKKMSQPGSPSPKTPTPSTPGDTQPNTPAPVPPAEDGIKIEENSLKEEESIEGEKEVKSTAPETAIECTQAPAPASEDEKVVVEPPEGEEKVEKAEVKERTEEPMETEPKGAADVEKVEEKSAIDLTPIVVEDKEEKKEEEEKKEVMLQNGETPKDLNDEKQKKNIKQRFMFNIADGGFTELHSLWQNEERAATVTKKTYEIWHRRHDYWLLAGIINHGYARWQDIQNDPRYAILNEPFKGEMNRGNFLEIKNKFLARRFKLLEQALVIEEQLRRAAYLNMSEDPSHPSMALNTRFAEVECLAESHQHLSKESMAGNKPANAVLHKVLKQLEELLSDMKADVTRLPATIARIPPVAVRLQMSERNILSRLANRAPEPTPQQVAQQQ
UniProt Q99618: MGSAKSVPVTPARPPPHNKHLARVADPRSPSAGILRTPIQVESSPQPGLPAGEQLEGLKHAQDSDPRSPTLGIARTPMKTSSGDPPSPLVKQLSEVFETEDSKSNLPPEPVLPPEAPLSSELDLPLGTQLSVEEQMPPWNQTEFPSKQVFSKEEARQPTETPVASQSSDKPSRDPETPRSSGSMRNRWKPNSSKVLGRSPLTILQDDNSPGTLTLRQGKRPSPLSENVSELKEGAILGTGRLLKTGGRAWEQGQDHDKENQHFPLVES
UniProt Q9UQN3, whole entry, looked up: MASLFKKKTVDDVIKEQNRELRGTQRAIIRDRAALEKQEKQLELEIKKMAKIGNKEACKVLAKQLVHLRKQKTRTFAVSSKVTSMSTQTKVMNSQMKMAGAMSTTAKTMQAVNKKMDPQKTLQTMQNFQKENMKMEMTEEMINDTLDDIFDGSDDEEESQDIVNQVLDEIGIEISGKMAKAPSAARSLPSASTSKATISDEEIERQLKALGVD
UniProt P21127: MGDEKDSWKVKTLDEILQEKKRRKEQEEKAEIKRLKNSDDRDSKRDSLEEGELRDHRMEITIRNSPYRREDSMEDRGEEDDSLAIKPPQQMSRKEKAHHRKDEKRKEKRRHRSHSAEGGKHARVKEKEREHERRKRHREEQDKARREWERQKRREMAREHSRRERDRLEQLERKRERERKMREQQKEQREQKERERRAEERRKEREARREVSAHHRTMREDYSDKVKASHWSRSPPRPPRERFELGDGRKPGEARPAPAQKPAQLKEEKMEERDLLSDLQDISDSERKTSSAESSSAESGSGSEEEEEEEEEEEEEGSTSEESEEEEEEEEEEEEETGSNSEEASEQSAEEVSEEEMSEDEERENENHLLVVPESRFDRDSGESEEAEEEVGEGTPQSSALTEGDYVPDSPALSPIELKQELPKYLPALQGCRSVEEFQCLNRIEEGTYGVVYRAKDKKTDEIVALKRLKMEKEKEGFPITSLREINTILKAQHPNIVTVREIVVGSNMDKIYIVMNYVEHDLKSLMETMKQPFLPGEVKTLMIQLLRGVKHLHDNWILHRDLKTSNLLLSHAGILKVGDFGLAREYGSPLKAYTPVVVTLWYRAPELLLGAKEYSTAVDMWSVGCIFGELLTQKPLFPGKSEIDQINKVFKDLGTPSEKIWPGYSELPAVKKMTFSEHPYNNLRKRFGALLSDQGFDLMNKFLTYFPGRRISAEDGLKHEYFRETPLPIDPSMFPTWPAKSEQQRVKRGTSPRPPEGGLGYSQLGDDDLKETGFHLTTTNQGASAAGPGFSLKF
UniProt Q9Y5P4: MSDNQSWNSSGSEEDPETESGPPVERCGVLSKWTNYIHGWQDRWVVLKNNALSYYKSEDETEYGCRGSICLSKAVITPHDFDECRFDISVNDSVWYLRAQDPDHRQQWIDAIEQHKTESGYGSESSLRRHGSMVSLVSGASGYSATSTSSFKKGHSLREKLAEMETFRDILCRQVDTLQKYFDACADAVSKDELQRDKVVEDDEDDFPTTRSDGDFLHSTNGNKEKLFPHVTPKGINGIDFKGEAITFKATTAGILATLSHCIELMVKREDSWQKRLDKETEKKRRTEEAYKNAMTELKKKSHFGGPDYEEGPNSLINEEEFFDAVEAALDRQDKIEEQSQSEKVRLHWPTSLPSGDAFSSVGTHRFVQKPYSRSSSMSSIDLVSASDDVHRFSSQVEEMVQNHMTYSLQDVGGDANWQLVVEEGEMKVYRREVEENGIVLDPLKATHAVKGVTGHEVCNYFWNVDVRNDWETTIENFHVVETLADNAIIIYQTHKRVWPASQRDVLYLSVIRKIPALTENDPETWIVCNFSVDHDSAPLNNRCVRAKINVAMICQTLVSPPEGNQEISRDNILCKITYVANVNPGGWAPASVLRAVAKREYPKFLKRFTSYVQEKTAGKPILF
UniProt Q96G28: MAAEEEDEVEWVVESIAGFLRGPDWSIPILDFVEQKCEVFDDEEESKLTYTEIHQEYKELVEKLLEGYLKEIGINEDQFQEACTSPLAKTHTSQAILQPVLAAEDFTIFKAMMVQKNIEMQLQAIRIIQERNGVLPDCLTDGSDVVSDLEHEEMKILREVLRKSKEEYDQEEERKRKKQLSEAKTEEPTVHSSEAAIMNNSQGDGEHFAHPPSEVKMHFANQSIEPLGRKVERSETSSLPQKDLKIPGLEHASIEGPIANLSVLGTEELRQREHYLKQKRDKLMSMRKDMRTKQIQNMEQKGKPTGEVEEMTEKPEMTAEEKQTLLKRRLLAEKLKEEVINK
UniProt Q9Y6H1: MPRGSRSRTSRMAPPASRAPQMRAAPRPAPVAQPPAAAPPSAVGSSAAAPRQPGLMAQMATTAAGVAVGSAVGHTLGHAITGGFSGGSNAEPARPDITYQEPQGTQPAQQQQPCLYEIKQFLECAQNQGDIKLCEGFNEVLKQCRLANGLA
UniProt P26374: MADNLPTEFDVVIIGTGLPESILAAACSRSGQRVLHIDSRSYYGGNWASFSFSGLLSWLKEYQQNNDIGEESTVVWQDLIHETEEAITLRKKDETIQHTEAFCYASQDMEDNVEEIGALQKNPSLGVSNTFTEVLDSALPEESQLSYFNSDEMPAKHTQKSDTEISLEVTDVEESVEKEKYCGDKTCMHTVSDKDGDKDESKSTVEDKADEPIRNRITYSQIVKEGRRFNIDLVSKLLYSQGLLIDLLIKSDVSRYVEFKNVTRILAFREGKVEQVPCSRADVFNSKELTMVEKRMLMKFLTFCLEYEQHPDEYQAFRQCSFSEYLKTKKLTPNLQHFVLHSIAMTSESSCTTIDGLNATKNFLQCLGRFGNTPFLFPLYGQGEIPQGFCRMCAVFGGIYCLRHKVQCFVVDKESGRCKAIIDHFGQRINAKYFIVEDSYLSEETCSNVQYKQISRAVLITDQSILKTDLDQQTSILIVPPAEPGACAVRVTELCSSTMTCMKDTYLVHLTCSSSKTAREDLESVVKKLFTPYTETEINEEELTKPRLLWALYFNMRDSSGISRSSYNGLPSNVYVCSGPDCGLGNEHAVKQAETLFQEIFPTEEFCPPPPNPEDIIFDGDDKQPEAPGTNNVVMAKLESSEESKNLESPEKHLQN
UniProt Q9NZZ3: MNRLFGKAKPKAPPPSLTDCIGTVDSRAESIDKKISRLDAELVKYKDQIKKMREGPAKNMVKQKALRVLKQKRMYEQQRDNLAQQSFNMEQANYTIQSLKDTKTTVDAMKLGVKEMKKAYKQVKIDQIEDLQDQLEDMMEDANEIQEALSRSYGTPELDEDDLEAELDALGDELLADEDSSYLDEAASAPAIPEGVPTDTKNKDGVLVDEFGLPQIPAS
UniProt P23528, whole entry, looked up: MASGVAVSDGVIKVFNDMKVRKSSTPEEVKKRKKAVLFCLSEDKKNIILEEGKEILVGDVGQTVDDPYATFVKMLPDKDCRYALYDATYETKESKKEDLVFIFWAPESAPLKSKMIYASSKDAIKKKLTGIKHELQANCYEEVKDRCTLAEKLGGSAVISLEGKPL
UniProt Q00537: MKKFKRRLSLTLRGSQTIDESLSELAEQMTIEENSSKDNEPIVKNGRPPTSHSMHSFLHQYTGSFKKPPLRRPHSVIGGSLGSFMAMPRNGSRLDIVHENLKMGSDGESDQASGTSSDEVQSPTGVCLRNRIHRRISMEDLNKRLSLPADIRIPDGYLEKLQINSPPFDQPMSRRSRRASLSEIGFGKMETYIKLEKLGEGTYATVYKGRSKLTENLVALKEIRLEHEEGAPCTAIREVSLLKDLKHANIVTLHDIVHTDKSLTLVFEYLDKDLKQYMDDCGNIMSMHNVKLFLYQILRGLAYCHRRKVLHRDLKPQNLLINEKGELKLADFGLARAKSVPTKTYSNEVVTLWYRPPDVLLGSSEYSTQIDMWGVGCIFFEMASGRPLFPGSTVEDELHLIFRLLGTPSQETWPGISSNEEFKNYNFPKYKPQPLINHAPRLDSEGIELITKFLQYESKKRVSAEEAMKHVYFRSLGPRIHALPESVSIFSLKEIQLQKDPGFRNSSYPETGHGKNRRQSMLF
UniProt Q00534, whole entry, looked up: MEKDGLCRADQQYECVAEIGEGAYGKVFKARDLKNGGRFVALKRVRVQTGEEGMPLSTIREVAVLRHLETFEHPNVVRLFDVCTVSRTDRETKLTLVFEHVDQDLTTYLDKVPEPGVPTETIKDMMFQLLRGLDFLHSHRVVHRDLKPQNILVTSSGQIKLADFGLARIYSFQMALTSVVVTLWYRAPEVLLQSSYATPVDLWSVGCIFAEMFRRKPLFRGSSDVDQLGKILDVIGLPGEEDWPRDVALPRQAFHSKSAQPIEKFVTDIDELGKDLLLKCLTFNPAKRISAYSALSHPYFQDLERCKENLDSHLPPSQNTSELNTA

Legend:
Test in all cases: log2 fold change, soluble protein after heating vs DMSO (PISA); higher = thermal stabilisation; K562 cells, 10 uM, 30 min; active = over 0.2 and 3.5 SD of the protein, either way, in both replicates (recomputed)
[1] = compound: NC(=O)Nc1cc(-c2cccc(F)c2)sc1C(=O)N[C@H]1CCCNC1
In short: (§1)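 K562 cells at 2×10^6 cells/mL were exposed to 10 μM compound for 30 min, then aliquots were heated for 3 min across 48°C-58°C, pooled, and extracted in PBS containing 0.5% NP-40 at 4°C. The supernatant after 21,000xg for 90 min was taken as soluble protein and measured by TMTpro 16plex LC-MS/MS with channel sums equalised. Thermal stability is reported relative to control samples, with values from duplicates. Fold changes are given on a log2 scale.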

[2] = compound: NC(=O)c1cnc(N[C@@H]2CCCC[C@@H]2N)nc1Nc1cccc(-n2nccn2)c1
In short: as §1

[3] = compound: NC1(c2ccc(-c3nc4ccn5c(=O)[nH]nc5c4cc3-c3ccccc3)cc2)CCC1
In short: as §1

[4] = compound: NCC(=O)Nc1ccc(-n2nc(C(F)(F)F)cc2-c2ccc3c(ccc4ccccc43)c2)cc1
In short: as §1

entinostat = compound: Nc1ccccc1NC(=O)c1ccc(CNC(=O)OCc2cccnc2)cc1 [entinostat]
In short: as §1

vorinostat = compound: O=C(CCCCCCC(=O)Nc1ccccc1)NO [vorinostat]
In short: as §1

citarinostat = compound: O=C(CCCCCCNC(=O)c1cnc(N(c2ccccc2)c2ccccc2Cl)nc1)NO [citarinostat]
In short: as §1

silmitasertib = compound: O=C(O)c1ccc2c(c1)nc(Nc1cccc(Cl)c1)c1ccncc12 [silmitasertib]
In short: as §1

[5] = compound: O=C1NC(=O)C(c2cnc3ccccn23)=C1c1cn2c3c(cc(F)cc13)CN(C(=O)N1CCCCC1)CC2
In short: as §1

[6] = compound: c1cc(OCCN2CCCCC2)cc(-c2n[nH]c3ccc(-c4nnc[nH]4)cc23)c1
In short: as §1

Target	log2 fold change [1]	log2 fold change [2]	log2 fold change [3]	log2 fold change [4]	log2 fold change (entinostat)	log2 fold change (vorinostat)	log2 fold change (citarinostat)	log2 fold change (silmitasertib)	log2 fold change [5]	log2 fold change [6]
CHAMP1 (UniProt Q96JM3)	inactive: -0.034	inactive: -0.136	inactive: 0.007	inactive: -0.031	inactive: 0.001	inactive: 0.137	inactive: -0.007	inactive: -0.02	inactive: -0.051	inactive: -0.078
CHD4 isoform 2 (UniProt Q14839)	inactive: -0.043	inactive: -0.07	inactive: -0.122	inactive: -0.039	inactive: 0.022	inactive: 0.049	inactive: 0.063	inactive: 0.099	inactive: -0.023	inactive: -0.069
CDS2 (UniProt O95674)	inactive: -0.014	inactive: 0.049	inactive: -0.018	inactive: 0.083	inactive: 0.01	inactive: 0.017	inactive: 0.02	inactive: -0.003	inactive: -0.023	inactive: 0.013
CDCA3 (UniProt Q99618)	inactive: -0.045	inactive: -0.034	inactive: 0.024	inactive: 0.027	inactive: -0.008	inactive: -0.054	inactive: 0.007	inactive: 0.022	inactive: -0.005	inactive: -0.045
CENPF (UniProt P49454)	inactive: 0.097	inactive: -0.03	inactive: 0.05	inactive: 0.034	inactive: -0.029	inactive: -0.002	inactive: 0.005	inactive: 0.111	inactive: 0.035	inactive: -0.046
CHMP2B (UniProt Q9UQN3)	inactive: 0.084	inactive: 0.011	inactive: -0.209	inactive: 0.013	inactive: 0.023	inactive: 0.018	inactive: 0.025	inactive: 0.005	inactive: -0.029	inactive: 0.021
CDK11B (UniProt P21127)	inactive: -0.114	inactive: -0.012	inactive: 0.031	inactive: 0.006	inactive: -0.111	inactive: 0.064	inactive: -0.047	inactive: -0.061	inactive: 0.072	inactive: -0.301
CERT isoform 3 (UniProt Q9Y5P4)	active: -0.323	inactive: -0.103	inactive: -0.101	inactive: -0.045	inactive: -0.008	inactive: -0.025	inactive: 0.065	inactive: 0.034	inactive: 0	active: -0.418
CFAP36 isoform 2 (UniProt Q96G28)	inactive: 0.027	inactive: -0.1	inactive: -0.095	inactive: -0.152	inactive: 0.023	inactive: -0.014	inactive: -0.022	inactive: 0.131	inactive: -0.025	inactive: 0.065
CHCHD2 (UniProt Q9Y6H1)	inactive: -0.039	inactive: -0.011	inactive: 0.022	inactive: 0.012	inactive: -0.01	inactive: 0.005	inactive: 0.018	inactive: 0.009	inactive: -0.13	inactive: -0.008
CHML (UniProt P26374)	inactive: -0.01	inactive: -0.042	inactive: -0.065	inactive: -0.023	inactive: 0.017	inactive: 0.012	inactive: 0.031	inactive: 0.007	inactive: -0.092	inactive: 0.013
CHMP5 (UniProt Q9NZZ3)	inactive: -0.044	inactive: -0.013	inactive: -0.103	inactive: -0.044	inactive: -0.014	inactive: -0.028	inactive: 0.012	inactive: -0.023	inactive: -0.016	inactive: 0.012
CFL1 (UniProt P23528)	inactive: 0.091	inactive: 0.021	inactive: -0.044	inactive: 0.048	inactive: 0.069	inactive: -0.037	inactive: 0.017	inactive: -0.023	inactive: -0.06	inactive: 0.026
CDK17 isoform 2 (UniProt Q00537)	inactive: -0.066	inactive: -0.258	inactive: -0.04	inactive: -0.074	inactive: 0.035	inactive: -0.114	inactive: -0.245	inactive: 0.088	inactive: 0.321	inactive: -0.083
CDK6 (UniProt Q00534)	inactive: -0.004	inactive: -0.082	inactive: -0.017	inactive: -0.003	inactive: 0.009	inactive: 0.005	inactive: -0.006	inactive: 0.131	inactive: 0.146	inactive: 0.017

Not a retest: an excerpt of the list.
Target	log2 fold change [1]	log2 fold change [2]	log2 fold change [3]	log2 fold change [4]	log2 fold change (entinostat)	log2 fold change (vorinostat)	log2 fold change (citarinostat)	log2 fold change (silmitasertib)	log2 fold change [5]	log2 fold change [6]
CHMP5 (UniProt Q9NZZ3)	inactive: -0.044	inactive: -0.013	inactive: -0.103	inactive: -0.044	inactive: -0.014	inactive: -0.028	inactive: 0.012	inactive: -0.023	inactive: -0.016	inactive: 0.012
CFL1 (UniProt P23528)	inactive: 0.091	inactive: 0.021	inactive: -0.044	inactive: 0.048	inactive: 0.069	inactive: -0.037	inactive: 0.017	inactive: -0.023	inactive: -0.06	inactive: 0.026
